Some results were stated once for a whole list of compounds, not compound by compound.
Experiment: Solubility in 100 g of water at 20° C.

## CCN(CC)CCO [N,N-diethylethanolamine]
  miscibility with water: miscible with water (the solubility of the organic compound in 100 g of water at 20 °C is greater than 10 g)
